Test results reported in the supplement of paper PMC6078165.
The reference is the same well before dosing, and untreated signal decays as well.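 Labels refer to human fibroblasts, largely primary: uterine (C12385, HUF), lung (H6013), bone (Hs27A), adrenal (HADF), skin (WS1), plus mammary HMF and breast cancer-associated Hs343T. Cancer lines are basal-like or mesenchymal-like triple-negative breast cancer. The paper counts as hits responses shifting over 3x the replicate standard deviation. The tissue of the other fibroblasts is not given here.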

Tested on: HCC1143
Assay: relative JC-1 red fluorescence (viability) vs pre-drug, coculture with fibroblast (fraction); higher = more viable cancer cells
Procedure: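 JC-1 labelled TNBC cells cocultured 1:1 (1,500 cells each) with CellTrace Violet stained primary or stromal fibroblasts in 384-well plates in FluoroBrite medium, treated with one of 42 anticancer drugs at 0.1, 1, 10 or 100 uM. JC-1 red fluorescence (mitochondrial integrity in cancer cells only) was read by plate reader every 8 h for 72 h. Values are normalised to each well's pre-drug value. The stock of one drug was tenfold lower, so its dose labels may be too high.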

CC[C@]1(O)C[C@H]2CN(CCc3c([nH]c4ccccc34)[C@@](C(=O)OC)(c3cc4c(cc3OC)N(C=O)[C@H]3[C@@](O)(C(=O)OC)[C@H](OC(C)=O)[C@]5(CC)C=CCN6CC[C@]43[C@@H]65)C2)C1 [Vincristine]
relative JC-1 red fluorescence
Settings	8 h	16 h	24 h	32 h	40 h	48 h	56 h	64 h	72 h
10 µM, coculture fibroblast: C12385	0.8486	0.8129	0.7843	0.7466	0.709	0.671	0.651	0.612	0.6029
10 µM, coculture fibroblast: H6013	0.793	0.749	0.729	0.747	0.676	0.673	0.66	0.658	0.688
10 µM, coculture fibroblast: H6019	0.86356	0.8284	0.817	0.79	0.7772	0.781	0.758	0.747	0.739
10 µM, coculture fibroblast: H6076	0.811	0.858	0.817	0.751	0.742	0.74	0.715	0.696	0.717
10 µM, coculture fibroblast: H6231	0.8487	0.784	0.735	0.701	0.649	0.632	0.595	0.563	0.5516
10 µM, coculture fibroblast: HADF	0.737	0.694	0.669	0.682	0.588	0.563	0.537	0.523	0.558
10 µM, coculture fibroblast: HCFa	0.8084	0.736	0.691	0.685	0.595	0.582	0.558	0.531	0.536
10 µM, coculture fibroblast: HCPF	0.8232	0.867	0.819	0.7	0.767	0.737	0.707	0.676	0.663
10 µM, coculture fibroblast: HHSteC	0.8414	0.795	0.761	0.751	0.6715	0.6542	0.61	0.5919	0.579
10 µM, coculture fibroblast: HMF	0.7921	0.874	0.803	0.685	0.737	0.707	0.67	0.644	0.6269
10 µM, coculture fibroblast: HPFa	0.938	0.878	0.855	0.758	0.716	0.693	0.6488	0.6131	0.595
10 µM, coculture fibroblast: HUF	0.881	0.805	0.753	0.685	0.643	0.617	0.58	0.55	0.526
10 µM, coculture fibroblast: Hs5	0.8622	0.91	0.87	0.826	0.779	0.751	0.7279	0.703	0.71
10 µM, coculture fibroblast: Hs27A	0.749	0.681	0.654	0.702	0.585	0.566	0.539	0.527	0.588
10 µM, coculture fibroblast: Hs343T	0.822	0.8998	0.846	0.734	0.744	0.706	0.672	0.644	0.624
10 µM, coculture fibroblast: WS1	0.868	0.82	0.793	0.746	0.713	0.695	0.661	0.642	0.621
100 µM, coculture fibroblast: C12385	0.876	0.833	0.797	0.7573	0.73492	0.708	0.686	0.655	0.625
100 µM, coculture fibroblast: H6013	0.795	0.736	0.732	0.745	0.654	0.636	0.601	0.579	0.615
100 µM, coculture fibroblast: H6019	0.915	0.879	0.849	0.8	0.777	0.755	0.705	0.6766	0.651
100 µM, coculture fibroblast: H6076	0.815	0.881	0.8655	0.784	0.784	0.766	0.7369	0.7157	0.708
100 µM, coculture fibroblast: H6231	0.869	0.775	0.828	0.765	0.856	0.827	0.786	0.749	0.736
100 µM, coculture fibroblast: HADF	0.784	0.744	0.718	0.737	0.647	0.625	0.594	0.578	0.599
100 µM, coculture fibroblast: HCFa	0.811	0.757	0.742	0.763	0.68	0.666	0.641	0.621	0.67
100 µM, coculture fibroblast: HCPF	0.8117	0.885	0.859	0.687	0.823	0.799	0.774	0.743	0.71
100 µM, coculture fibroblast: HHSteC	0.8488	0.794	0.789	0.784	0.728	0.718	0.682	0.657	0.646
100 µM, coculture fibroblast: HMF	0.813	0.881	0.859	0.731	0.802	0.777	0.745	0.72	0.685
100 µM, coculture fibroblast: HPFa	0.94141	0.8939	0.8852	0.822	0.789	0.793	0.772	0.757	0.733
100 µM, coculture fibroblast: HUF	0.9172	0.865	0.845	0.798	0.784	0.761	0.714	0.687	0.656
100 µM, coculture fibroblast: Hs5	0.8408	0.958	0.919	0.8359	0.8388	0.817	0.792	0.752	0.74
100 µM, coculture fibroblast: Hs27A	0.77	0.715	0.682	0.747	0.602	0.5728	0.5524	0.5419	0.6455
100 µM, coculture fibroblast: Hs343T	0.822	0.915	0.878	0.767	0.809	0.792	0.752	0.728	0.703
100 µM, coculture fibroblast: WS1	0.878	0.847	0.841	0.814	0.778	0.76	0.724	0.689	0.659
